# Data published in PubChem BioAssay AID1347076 (National Center for Advancing Translational Sciences (NCATS), 2019).
# “And” between values parts separate entries of the source, which are not always exact repeats. Equal entries are not always repeated. About 13,000 (3.2%) of roughly 400,000 compounds were called active. The inconclusive results got no clear call from the source; some entries with a clear call stand among them for comparison. Calls follow the shape of the dose curve; as a rule, active = well fitted cell-killing curve with a large enough effect; inconclusive = small, poorly fitted or top-dose-only effect, or effect the other way; inactive = flat fitted curve, though single readings scatter. Potencies of inconclusive entries are doubtful fits and often do not repeat.
# Experiment: qHTS assay for MDR1-selective chemotherapeutics: Primary screen using the drug-selected MDR subline cells KB-V1; also: nearly all actives have a fitted effect of over 60% in size
# Details: KB-V1 MDR cells viability, CellTiter-Glo, 72 h; activity change, negative = cytotoxicity: at 46.1 µM (top of the series)
# Procedure, shortened: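 Luminescent ATP read-out (CellTiter-Glo, 10 min) measures survival of drug-selected KB-V1 MDR cells after 72 h, 37 degrees C compound exposure. Medium: phenol-red-free DMEM, 10% FBS. Values from fitted concentration-response curves.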
# % is scaled to controls: 0 for no effect and ±100 for the full control effect; potency is read from the fitted curve at half-maximal effect.
SMILES,Potency,"activity change, negative = cytotoxicity"
COC(=O)C1C(=O)C(C(=O)c2ccccc2)C(=O)CC1(C)C (stereo not given),"inconclusive: 6.51 µM [cytotoxic, full curve]",
O=C(NCC1CCN(C(=O)c2ccc([N+](=O)[O-])cc2)CC1)c1ccc([N+](=O)[O-])cc1,"inconclusive: 29.1 µM [cytotoxic, single point]",
COc1ccccc1C(=O)Nc1cccc(N(C)S(C)(=O)=O)c1,"inconclusive: 20.6 µM [cytotoxic, single point]",
C=CCn1c(SC(C)C#N)nc2ccccc2c1=O (stereo not given),,inactive: 3.38%
CC(=O)N(C(C)=O)n1c(C)nc2sc3c(c2c1=O)CCCC3,"inconclusive: 10.3 µM [cytotoxic, partial curve, poor fit]",
O=C(CNCc1ccco1)Nc1ccc(Oc2ccccc2)cc1,"inconclusive: 29.1 µM [cytotoxic, single point]",
O=C(NCc1ccncc1)C(=O)NCC(c1ccco1)N1CCN(c2ccccc2)CC1 (stereo not given),"inconclusive: 16.4 µM [cytotoxic, partial curve, poor fit]",
COc1ccc(CN(C)C(=O)c2ccc(NC(=O)CC3SC(N4CCCCC4)=NC3=O)cc2)c(OC)c1 (stereo not given),"inconclusive: 25.9 µM [rising, single point]",
Cc1ccccc1-n1cnc2c(sc3nc(N4CCOCC4)c4c(c32)CCCC4)c1=O,"inconclusive: 8.2 µM [cytotoxic, partial curve, poor fit]",
O=C(CCS(=O)(=O)c1ccc(F)cc1)Nc1nc(-c2ccccn2)cs1,,inactive: -13.3%
CCC(C)Nc1ccc(NC(C)CC)cc1 (stereo not given),"inconclusive: 5.8 nM [cytotoxic, full curve, poor fit] and inconclusive: 29.1 µM [cytotoxic, single point]",
OC(CNCC1CCCO1)Cn1c2ccc(Cl)cc2c2cc(Cl)ccc21 (stereo not given),"inconclusive: 18.4 µM [cytotoxic, single point]",
COc1ccc(C(=O)N2CCCCC2c2cc(C(=O)Nc3cccc(C#N)c3)no2)cc1 (stereo not given),,inactive: 4.88%
O=C(Nc1cc(C(F)(F)F)ccc1N1CCOCC1)c1ccc[n+]([O-])c1,"inconclusive: 20.6 µM [rising, single point]",
O=C(NCC(=O)N(c1ccccc1)C(C(=O)NCC1CCCO1)c1ccccc1)c1cccs1 (stereo not given),"inconclusive: 23.1 µM [cytotoxic, partial curve, poor fit]",
c1ccc(CN2CCN(c3nc(NCc4ccco4)c4ccccc4n3)CC2)cc1,active: 3.66 µM,
CCOC(=O)c1cc2c(=O)n3ccccc3nc2n(Cc2ccco2)c1=NC(=O)c1cccc(C)c1,,inactive: -12.4%
Cc1nc2c(OCc3ccc(C#N)cc3)cccn2c1N(C)Cc1cccs1,active: 14.6 µM,
COc1cc(C(=O)Nc2ccc(Cl)c(C(F)(F)F)c2)cc(OC)c1OC,"inconclusive: 25.9 µM [cytotoxic, single point]",
Cc1ccc(CNC(=O)Cn2nc(N3CCN(c4ccccc4)CC3)ccc2=O)cc1,"inconclusive: 18.4 µM [cytotoxic, partial curve]",
CC(C)[C@@H](C(=O)NCC1CCCO1)N1C(=O)N2CCc3c([nH]c4ccccc34)[C@@]2(C)C1=O (stereo not given in full),,inconclusive: 30.7%
O=C(O)[C@@H]1CCCN1C(=O)c1ccccc1N1C(=O)[C@@H]2Cc3c([nH]c4ccccc34)C(c3cccc(Cl)c3)N2C1=O (stereo not given in full),"inconclusive: 32.6 µM [rising, single point]",
Cc1ccc(C2/C(=C(\O)c3ccc4c(c3)OCCO4)C(=O)C(=O)N2Cc2cccnc2)cc1 (stereo not given),"inconclusive: 23.1 µM [rising, single point]",
CCc1ccccc1NC(=O)c1ccc(Cn2nc(N3CCN(c4ccccc4)CC3)ccc2=O)o1,,inactive: -14.4%

# Part of the list above in order of formula weight, rising:
SMILES,Potency,"activity change, negative = cytotoxicity"
CCC(C)Nc1ccc(NC(C)CC)cc1 (stereo not given),"inconclusive: 5.8 nM [cytotoxic, full curve, poor fit] and inconclusive: 29.1 µM [cytotoxic, single point]",
O=C(NCC1CCN(C(=O)c2ccc([N+](=O)[O-])cc2)CC1)c1ccc([N+](=O)[O-])cc1,"inconclusive: 29.1 µM [cytotoxic, single point]",
Cc1ccccc1-n1cnc2c(sc3nc(N4CCOCC4)c4c(c32)CCCC4)c1=O,"inconclusive: 8.2 µM [cytotoxic, partial curve, poor fit]",

# Further records.

SMILES,Potency,"activity change, negative = cytotoxicity"
CCC[C@H]1CN(Cc2cccnc2)C(=O)[C@@H]1CC(=O)Nc1ccc(Br)cc1,"inconclusive: 9.2 µM [cytotoxic, partial curve]",
O=c1[nH]c(CSc2nc(-c3ccc(F)cc3)cs2)nc2ccccc12,active: 5.8 µM,
Fc1ccccc1NC(=S)Nc1ccc(Br)cc1,"inconclusive: 7.31 µM [cytotoxic, partial curve]",
Cc1ccc(SC[C@H](Cc2ccccc2)N2CC[C@@H](C(C)(C)C)CCC2=O)cc1,"inconclusive: 13 µM [cytotoxic, partial curve]",
O=C(Nc1nc(-c2ccccc2)cs1)c1ccc(N2CCOCC2)c([N+](=O)[O-])c1,active: 1.84 µM,
Cc1cc(Cl)ccc1NC(=S)NCC(O)c1ccccc1 (stereo not given),"inconclusive: 9.2 µM [cytotoxic, single point]",
Cc1ccc(NC(=O)Nc2cn(C)c(=O)c3ccccc23)c(Cl)c1,,inactive: -1.52%
O=C(Cc1ccccc1)Nc1ccnn1C1CCN(Cc2ccc(CO)o2)CC1,,inactive: -2.59%
Cc1cccc(C(=O)N/N=C2/SCC(=O)N2Cc2ccccc2)c1,"inconclusive: 29.1 µM [cytotoxic, single point]",
O=C(Nc1ccc(S(=O)(=O)N2CCOCC2)cc1)c1ccc(Cl)cc1,"inconclusive: 20.6 µM [cytotoxic, single point]",
COc1ccc(C(=O)Nn2c(CC(C)C)nc3cc(OC)c(OC)cc3c2=O)c(OC)c1,,inactive: 4.33%
COc1ccccc1NC(=O)CSc1n[nH]c(-c2ccccn2)n1,"inconclusive: 8.2 µM [cytotoxic, partial curve, poor fit]",
O=C1NC(=O)C(CC(=O)N(c2ccccc2)C2(C(=O)NC3CCCC3)CCCCC2)N1 (stereo not given),,inactive: 3.27%
CN(C)C(=O)c1ccc(Nc2nc(-c3cccs3)nc3ccccc23)cc1,,inactive: -20.9%
COCc1cc(C)nc2sc(C(=O)Nc3ccc(C(C)=O)cc3)c(N)c12,"inconclusive: 25.9 µM [cytotoxic, single point]",
Cc1nnc(NC(=O)CSc2nnc(-c3ccccc3)n2C)s1,"inconclusive: 16.4 µM [cytotoxic, single point]",
c1ccc(N2CC3COc4ccccc4C3=N2)cc1 (stereo not given),,inactive: -18.7%
COc1cc(OC)cc(C(=O)N[C@H](C(=O)OCC(=O)Nc2cccc(F)c2)C(C)C)c1,"inconclusive: 13 µM [cytotoxic, partial curve]",
CCOc1ccc(NC(=O)Cc2c(O)c3ccccc3[nH]c2=O)cc1,,inactive: 13.8%
CCOC(=O)Cc1c(C)nc2cc(-c3ccc(C(C)(C)C)cc3)nn2c1C,,inactive: -14.2%
O=C1[C@H]2[C@@H](c3ccc(F)cc3)N3C(=O)N(c4cccc(Br)c4)C(=O)[C@@]3(Cc3ccccc3)[C@H]2C(=O)N1C1CCCCC1,"inconclusive: 20.6 µM [rising, single point]",
O=C(COc1cccc2c1CCN(Cc1ccc(Br)cc1)C2=O)N1CCOCC1,active: 4.11 µM,
Cc1ccc2nc(Cl)c(C#N)cc2c1,,inactive: 3.42%
COc1cccc(NC(=O)CN(C)C(=O)c2cc(-c3ccc(F)cc3)nc3ccccc23)c1,"inconclusive: 10.3 µM [cytotoxic, partial curve, poor fit]",

SMILES,Potency,"activity change, negative = cytotoxicity"
COC(=O)c1cccc(NC(=O)CC2C(=O)NCCN2C(=O)Nc2cc(C)cc(C)c2)c1 (stereo not given),"inconclusive: 29.1 µM [rising, single point]",
CCC(=O)N(CC(=O)Nc1sc(C)c(C)c1C(N)=O)C1CCCC1,"inconclusive: 18.4 µM [cytotoxic, single point]",
CCN(CC)S(=O)(=O)c1cccc2cccnc12,,inactive: 12.8%
CC1(C)Cc2c(cnn2-c2ccc(F)cc2)C(NC(=O)c2cnccn2)C1 (stereo not given),"inconclusive: 10.3 µM [cytotoxic, partial curve]",
Cn1c(=O)n(CC(=O)O)c(=O)c2c1nc1n2CCCN1c1ccc(Cl)cc1,,inactive: 4.57%
CCCCn1nc(NC(=O)COC)c2cc3ccc(C)cc3nc21,"inconclusive: 2.91 µM [rising, partial curve, poor fit]",
COc1cc2c(cc1NC(=O)COCC(=O)O)oc1ccccc12,,inactive: 22.1%
COc1cc(C(=O)Nc2ccc3oc(-c4cccnc4)nc3c2)cc(OC)c1OC,active: 14.6 µM,
CCOC(=O)c1c(NC(=O)CSc2nc(-c3ccc(OC)cc3)cc(C(F)(F)F)n2)sc(C)c1C,,inactive: 19.3%
Cn1c(=O)c2c(nc(NC3CCCCC3)n2CC(=O)C23CC4CC(CC(C4)C2)C3)n(C)c1=O,"inconclusive: 29.1 µM [cytotoxic, single point]",
C/C(=N/NC(=O)CN1CCN(Cc2ccccc2Cl)CC1)c1cccs1,"inconclusive: 23.1 µM [cytotoxic, partial curve, poor fit]",
COc1ccc(-n2ncc(C(=O)N3CCN(C4CCCCC4)CC3)c2C2CCN(C(=O)OC(C)(C)C)CC2)cc1,,inactive: 5.74%
COC(=O)c1cccc(CSC(=S)N2CCCC2)c1,,inactive: 15.7%
C=CCc1ccccc1OCc1nc2ccc(C)cc2[nH]1,,inactive: 8.15%
Cc1ccc(NC(=O)c2c3c(nc4ccccc24)C(=O)N(C2CCCCC2)C3)cc1F,,inactive: 7.8%
CCOc1cc(CNCCO)cc(Br)c1OCc1ccc(Cl)cc1,"inconclusive: 18.4 µM [cytotoxic, single point]",
COc1ccc(CNC(=O)c2ccc(C(C)C)cc2)cc1,"inconclusive: 20.6 µM [cytotoxic, partial curve, poor fit]",
O=C(Nc1nccs1)c1cc2c(s1)-c1ccccc1OC2,,inactive: -16.7%
CC(C)CNC(=O)C1Nc2ccccc2C2C=CCC12 (stereo not given),"inconclusive: 0.092 µM [rising, full curve]",
CC(=O)c1nc2ccccc2n1CCc1ccccc1,,inactive: 10.8%
CCCCN(C(=O)c1cc(CN2C(=O)c3ccccc3C2=O)ccc1OC)c1c(N)n(CC(C)C)c(=O)[nH]c1=O,,inactive: -0.898%
CCOC(=O)c1cc2ccccc2n1C1CCN(C)CC1,,inconclusive: 0%
